Assay results published in PMC9480851.
Results are given in words; binding and its absence hold for the method and conditions named. Binding seen in cells or lysates may run through a third protein. Some results given as binding are weak or reduced against the parent protein; the word gives no strength.

Amino acid sequences for entries named in this document (tags omitted).
UniProt Q6MZP7: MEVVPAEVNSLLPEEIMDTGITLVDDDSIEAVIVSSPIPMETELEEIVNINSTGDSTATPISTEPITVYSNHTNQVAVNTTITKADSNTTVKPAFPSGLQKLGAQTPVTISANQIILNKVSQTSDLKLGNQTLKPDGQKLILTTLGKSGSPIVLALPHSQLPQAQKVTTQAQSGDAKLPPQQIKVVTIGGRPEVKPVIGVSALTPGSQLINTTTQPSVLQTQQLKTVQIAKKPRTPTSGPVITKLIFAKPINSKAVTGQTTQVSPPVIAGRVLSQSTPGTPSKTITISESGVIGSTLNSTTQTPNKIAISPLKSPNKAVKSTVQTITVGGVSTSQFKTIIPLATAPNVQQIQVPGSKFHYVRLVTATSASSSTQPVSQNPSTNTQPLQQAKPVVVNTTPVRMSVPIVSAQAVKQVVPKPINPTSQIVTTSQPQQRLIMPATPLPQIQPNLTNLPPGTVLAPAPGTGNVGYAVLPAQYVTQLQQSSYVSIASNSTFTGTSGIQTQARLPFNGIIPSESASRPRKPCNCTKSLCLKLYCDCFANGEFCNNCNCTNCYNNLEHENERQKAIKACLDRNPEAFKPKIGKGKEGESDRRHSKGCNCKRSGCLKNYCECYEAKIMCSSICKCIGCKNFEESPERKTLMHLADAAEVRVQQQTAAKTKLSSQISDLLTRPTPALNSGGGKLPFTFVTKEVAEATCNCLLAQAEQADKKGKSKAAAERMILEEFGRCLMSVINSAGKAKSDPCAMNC
UniProt Q08999: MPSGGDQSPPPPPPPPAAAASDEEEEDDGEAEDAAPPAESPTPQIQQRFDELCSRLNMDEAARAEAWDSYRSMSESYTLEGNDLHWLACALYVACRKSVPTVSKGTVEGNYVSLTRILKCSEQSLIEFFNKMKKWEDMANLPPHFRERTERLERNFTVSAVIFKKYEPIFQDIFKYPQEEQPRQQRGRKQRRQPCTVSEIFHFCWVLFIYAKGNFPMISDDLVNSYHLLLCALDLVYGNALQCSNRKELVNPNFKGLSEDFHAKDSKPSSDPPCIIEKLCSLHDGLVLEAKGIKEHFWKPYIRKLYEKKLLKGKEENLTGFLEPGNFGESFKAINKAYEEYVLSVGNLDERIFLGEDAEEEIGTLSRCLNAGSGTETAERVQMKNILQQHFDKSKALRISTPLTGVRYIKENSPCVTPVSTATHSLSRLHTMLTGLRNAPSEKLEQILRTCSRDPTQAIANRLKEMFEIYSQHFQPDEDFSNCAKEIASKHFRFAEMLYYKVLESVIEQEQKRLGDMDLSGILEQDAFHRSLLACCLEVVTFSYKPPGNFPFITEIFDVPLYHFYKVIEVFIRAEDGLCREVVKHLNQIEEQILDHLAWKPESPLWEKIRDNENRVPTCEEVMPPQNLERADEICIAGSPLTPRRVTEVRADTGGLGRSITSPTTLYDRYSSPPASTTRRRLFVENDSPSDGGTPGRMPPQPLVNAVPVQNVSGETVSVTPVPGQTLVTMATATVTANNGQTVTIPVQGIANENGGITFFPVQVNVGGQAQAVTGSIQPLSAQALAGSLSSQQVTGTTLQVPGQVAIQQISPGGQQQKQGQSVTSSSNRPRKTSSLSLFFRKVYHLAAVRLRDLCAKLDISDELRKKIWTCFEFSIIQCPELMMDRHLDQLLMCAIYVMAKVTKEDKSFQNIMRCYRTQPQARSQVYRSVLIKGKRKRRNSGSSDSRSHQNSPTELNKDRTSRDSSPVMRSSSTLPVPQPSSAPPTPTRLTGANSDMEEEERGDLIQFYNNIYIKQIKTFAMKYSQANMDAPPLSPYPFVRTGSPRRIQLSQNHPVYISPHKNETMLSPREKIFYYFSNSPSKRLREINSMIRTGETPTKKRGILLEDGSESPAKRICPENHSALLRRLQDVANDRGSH

Target: Lin54 subunit of the DREAM complex (human (endogenous in 1BR3-hTERT)) (UniProt Q6MZP7)
Test: co-IP; endogenous proteins in lysates of 1BR3-hTERT parental, PBRM1 KO and PBRM1 KO rescue cells, after irradiation; antibody on protein G Dynabeads, 2500 ug total protein, IP lysis buffer (50 mM Tris pH 7.5, 150 mM NaCl, 0.5% NP-40, 3 mM MgCl2, benzonase), overnight at 4°C; Western blot

With “p130 pocket protein (from UniProt Q08999 1-1139)” the binding was “binds”.
